{"source": "paper doi:10.64898/2025.11.30.691381", "biological_target": "T1, FLAG-SMN protein (Drosophila) (UniProt Q9VV74)", "T1 sequence": "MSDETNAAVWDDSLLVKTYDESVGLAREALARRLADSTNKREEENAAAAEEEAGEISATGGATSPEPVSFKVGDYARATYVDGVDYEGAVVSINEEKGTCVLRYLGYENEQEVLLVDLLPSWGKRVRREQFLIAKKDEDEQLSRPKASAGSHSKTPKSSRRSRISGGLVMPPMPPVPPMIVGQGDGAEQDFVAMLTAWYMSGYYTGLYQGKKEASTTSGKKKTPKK", "experiment": "co-IP", "note": "No constants are given. Whether binding was seen depends on the method and setting. Binding seen in cells or lysates may run through a third protein. Binding can be weak; no strength is given. Tags and fused reporters may be left off the sequences shown."}
{"substance": "dLarp7 co-precipitated with FLAG-SMN (Drosophila)", "values": [{"measurement": "binding", "result": "binds"}]}
